In test [1] the target is VPS35L-BioID1 (UniProt Q7Z3J2). Kind of test: proximity labelling; BioID1-tagged bait in KO HeLa, 24 h biotin, streptavidin isolation, 10-plex TMT nano-LC-MS/MS, 6 repeats, compared with cytosolic BioID1; cut-off log2 FC ≥ 0.8 and p < 0.05.
The target in test [2] is BioID1-VPS35L (UniProt Q7Z3J2). Described as above.

Results are given in words; binding and its absence hold for the method and conditions named. Binding seen in cells or lysates may run through a third protein. Here binding means that the protein was enriched with, or labelled near, the bait; the list need not be complete.

B1: WASH2P (protein, UniProt Q6VEQ5 1-465)
chain: MTPVRMQHSLAGQTYAVPLIQPDLRREEAVQQMADALQYLQKVSGDIFSRISQQVEQSRSQVQAIGEKVSLAQAKIEKIKGSKKAIKVFSSAKYPAPERLQEYGSIFTGAQDPGLQRRPRHRIQSKHRPLDERALQEKLKDFPVCVSTKPEPEDDAEEGLGGLPSNISSVSSLLLFNTTENLYKKYVFLDPLAGAVTKTHVMLGAETEEKLFDAPLSISKREQLEQQVPENYFYVPDLGQVPEIDVPSYLPDLPGIANDLMYIADLGPGIAPSAPGTIPELPTFHTEVAEPLKVDLQDGVLTPPPPPPPPPPAPEVLASAPPLPPSTAAPVGQGARQDDSSSSASPSVQGAPREVVDPSGGRATLLESIRQAGGIGKAKLRSMKERKLEKKKQKEQEQVRATSQGGHLMSDLFNKLVMRRKGISGKGPGAGEGPGGAFARVSDSIPPLPPPQQPQAEEDEDDWES
Turning to B1, the binding entry in test [1] and in test [2] was “binds” in each case.

The record behind these values is article PMC12311110.
